No constants are given. Whether binding was seen depends on the method and setting. Binding seen in cells or lysates may run through a third protein. A yes stands for co-enrichment or nearness to the bait. Other partners may have been found. Where a sequence is shown, tags or fusion partners need not be part of it.

Amino acid sequences for entries named in this document (tags omitted). A change or cut given only in a name is not applied to a line headed by its entry.
UniProt Q9ZUK7: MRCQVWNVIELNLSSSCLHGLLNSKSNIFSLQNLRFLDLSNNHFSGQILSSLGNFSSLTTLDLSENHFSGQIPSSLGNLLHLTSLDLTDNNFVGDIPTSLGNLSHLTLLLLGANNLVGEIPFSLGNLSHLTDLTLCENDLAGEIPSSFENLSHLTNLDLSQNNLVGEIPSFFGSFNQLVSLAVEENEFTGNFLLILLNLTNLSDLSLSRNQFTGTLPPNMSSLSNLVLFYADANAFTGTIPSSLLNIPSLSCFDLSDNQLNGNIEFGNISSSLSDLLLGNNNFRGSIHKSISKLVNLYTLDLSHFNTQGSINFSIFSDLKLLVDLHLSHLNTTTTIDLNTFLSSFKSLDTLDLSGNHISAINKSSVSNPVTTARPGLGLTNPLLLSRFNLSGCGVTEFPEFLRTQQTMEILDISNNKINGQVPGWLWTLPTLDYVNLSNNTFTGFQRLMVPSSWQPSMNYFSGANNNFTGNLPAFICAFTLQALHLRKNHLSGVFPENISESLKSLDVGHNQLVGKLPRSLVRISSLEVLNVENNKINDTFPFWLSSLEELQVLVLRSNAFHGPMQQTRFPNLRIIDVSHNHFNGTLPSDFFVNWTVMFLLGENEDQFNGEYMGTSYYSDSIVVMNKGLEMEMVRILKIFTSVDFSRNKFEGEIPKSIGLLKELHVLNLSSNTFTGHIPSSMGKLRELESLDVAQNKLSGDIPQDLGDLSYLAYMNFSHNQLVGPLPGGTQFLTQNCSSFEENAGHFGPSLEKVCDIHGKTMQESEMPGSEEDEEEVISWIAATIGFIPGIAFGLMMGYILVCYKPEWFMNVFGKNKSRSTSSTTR
UniProt O04157: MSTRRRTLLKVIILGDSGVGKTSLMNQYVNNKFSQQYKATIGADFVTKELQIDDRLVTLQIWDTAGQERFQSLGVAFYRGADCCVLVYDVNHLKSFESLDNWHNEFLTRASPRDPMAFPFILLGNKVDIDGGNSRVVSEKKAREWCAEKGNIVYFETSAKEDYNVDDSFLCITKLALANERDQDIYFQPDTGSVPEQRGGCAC

Here are results for five molecules from article doi:10.1101/2023.09.29.560113.

T1: NET4A-GFP fusion protein (Arabidopsis thaliana) (UniProt F4KEW8)
T1 sequence: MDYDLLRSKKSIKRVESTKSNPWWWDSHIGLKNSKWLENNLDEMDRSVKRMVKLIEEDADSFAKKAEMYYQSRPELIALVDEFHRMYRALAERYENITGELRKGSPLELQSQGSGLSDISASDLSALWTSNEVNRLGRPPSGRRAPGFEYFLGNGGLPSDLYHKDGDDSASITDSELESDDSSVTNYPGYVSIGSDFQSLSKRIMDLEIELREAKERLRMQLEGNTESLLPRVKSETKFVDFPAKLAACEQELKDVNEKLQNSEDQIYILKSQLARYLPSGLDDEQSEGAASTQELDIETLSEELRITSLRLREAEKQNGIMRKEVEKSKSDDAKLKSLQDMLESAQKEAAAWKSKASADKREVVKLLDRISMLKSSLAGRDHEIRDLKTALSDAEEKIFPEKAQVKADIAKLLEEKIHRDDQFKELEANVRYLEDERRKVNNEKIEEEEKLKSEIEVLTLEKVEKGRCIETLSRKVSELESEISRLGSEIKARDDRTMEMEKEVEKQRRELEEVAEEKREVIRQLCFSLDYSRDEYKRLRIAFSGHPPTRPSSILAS

B1: RABC1 (protein, UniProt O23657 1-212)
chain: MGSSSGQPEFDYLFKVLLIGDSGVGKSSLLLSFTSNTFDDLSPTIGVDFKVKYLTIGEKKLKLAIWDTAGQERFRTLTSSYYRGAQGIIMVYDVTRRDTFTNLSDIWAKEIDLYSTNQDCIKMLVGNKVDKESERAVSKKEGIDFAREYGCLFLECSAKTRVNVEQCFEELVLKILETPSLTAEGSSGGKKNIFKQNPAQTTSTSSSYCCSS
B2: RABG3A (protein, UniProt Q948K8 1-206)
chain: MATRRRTLLKVIVLGDSGVGKTSLMNQYVHKKFSMQYKATIGADFVTKELQIGEKLVTLQIWDTAGQERFQSLGAAFYRGADCCALVYDVNVLRSFDNLETWHEEFLKQASPSDPKTFPFIVLGNKIDVDGGSSRVVSDKKAADWCASNGNIPYFETSAKDDFNVDEAFLTIAKTALANEHEQDIYFQGIPDAVTENEPKGGGCAC

In the test the target is T1, NET4A-GFP fusion protein (Arabidopsis thaliana). As to the kind of experiment: affinity purification with mass spectrometry.
With At2g15042 (from UniProt Q9ZUK7), the binding entry was “binds”. The same measure for RABG3B (from UniProt O04157 1-203): “binds”.

On to At4g01245 (from UniProt F4JI00), for which the binding result is on record as “binds”. The same measure for B1: “binds”; for B2: “binds”.
